According to the supplement of paper PMC12823440, “Inhibitors supercharge kinase turnover through native proteolytic circuits” (Nature, 2025):
Counter-ions that a name gives are not always drawn. This is one part of the list. The calls rarely recur for the same compound in another form.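 In K562 cells expressing nanoluciferase-fused kinases, luminescence was recorded at 4 h intervals between 2 and 18 h, normalized as percent of control with DMSO at 100% and a positive control at 0%. A significant (2 sigma) signal drop marks a time point as decreased. The authors' rule for a hit is not shown and takes in more than the number of time points.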

Chains of the proteins cited; added tags and fusions are not shown. Lines headed by an entry give the natural chain unless they say otherwise; changes in a name come on top.
UniProt P53350, whole entry: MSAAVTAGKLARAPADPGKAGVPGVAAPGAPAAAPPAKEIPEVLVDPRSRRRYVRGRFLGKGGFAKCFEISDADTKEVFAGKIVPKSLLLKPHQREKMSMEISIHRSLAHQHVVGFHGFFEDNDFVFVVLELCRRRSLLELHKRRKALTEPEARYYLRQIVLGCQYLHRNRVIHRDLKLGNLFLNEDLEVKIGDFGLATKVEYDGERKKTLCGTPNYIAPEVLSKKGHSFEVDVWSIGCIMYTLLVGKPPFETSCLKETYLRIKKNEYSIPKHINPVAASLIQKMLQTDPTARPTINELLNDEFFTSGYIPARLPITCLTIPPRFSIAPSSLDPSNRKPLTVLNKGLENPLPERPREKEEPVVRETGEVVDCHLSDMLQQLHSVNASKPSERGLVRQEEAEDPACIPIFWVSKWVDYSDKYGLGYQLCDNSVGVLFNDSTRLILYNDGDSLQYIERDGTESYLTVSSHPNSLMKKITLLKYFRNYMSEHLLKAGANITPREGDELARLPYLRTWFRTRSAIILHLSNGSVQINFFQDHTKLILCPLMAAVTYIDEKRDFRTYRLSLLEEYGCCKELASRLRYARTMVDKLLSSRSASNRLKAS
UniProt Q13131: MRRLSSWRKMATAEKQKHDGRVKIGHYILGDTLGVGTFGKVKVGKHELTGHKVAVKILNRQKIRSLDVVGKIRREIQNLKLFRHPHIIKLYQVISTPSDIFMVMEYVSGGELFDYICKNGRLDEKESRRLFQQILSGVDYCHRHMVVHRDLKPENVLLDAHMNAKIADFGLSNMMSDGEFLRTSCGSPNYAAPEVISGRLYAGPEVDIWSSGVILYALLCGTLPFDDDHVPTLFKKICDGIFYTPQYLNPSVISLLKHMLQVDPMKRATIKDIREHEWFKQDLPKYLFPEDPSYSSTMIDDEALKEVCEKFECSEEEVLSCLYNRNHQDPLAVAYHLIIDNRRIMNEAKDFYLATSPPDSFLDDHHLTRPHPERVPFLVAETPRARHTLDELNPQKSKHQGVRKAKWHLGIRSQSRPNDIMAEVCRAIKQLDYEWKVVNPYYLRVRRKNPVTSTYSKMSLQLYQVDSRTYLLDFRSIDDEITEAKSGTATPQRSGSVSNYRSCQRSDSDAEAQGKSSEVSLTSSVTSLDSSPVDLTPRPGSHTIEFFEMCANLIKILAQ
UniProt P07949, whole entry, looked up: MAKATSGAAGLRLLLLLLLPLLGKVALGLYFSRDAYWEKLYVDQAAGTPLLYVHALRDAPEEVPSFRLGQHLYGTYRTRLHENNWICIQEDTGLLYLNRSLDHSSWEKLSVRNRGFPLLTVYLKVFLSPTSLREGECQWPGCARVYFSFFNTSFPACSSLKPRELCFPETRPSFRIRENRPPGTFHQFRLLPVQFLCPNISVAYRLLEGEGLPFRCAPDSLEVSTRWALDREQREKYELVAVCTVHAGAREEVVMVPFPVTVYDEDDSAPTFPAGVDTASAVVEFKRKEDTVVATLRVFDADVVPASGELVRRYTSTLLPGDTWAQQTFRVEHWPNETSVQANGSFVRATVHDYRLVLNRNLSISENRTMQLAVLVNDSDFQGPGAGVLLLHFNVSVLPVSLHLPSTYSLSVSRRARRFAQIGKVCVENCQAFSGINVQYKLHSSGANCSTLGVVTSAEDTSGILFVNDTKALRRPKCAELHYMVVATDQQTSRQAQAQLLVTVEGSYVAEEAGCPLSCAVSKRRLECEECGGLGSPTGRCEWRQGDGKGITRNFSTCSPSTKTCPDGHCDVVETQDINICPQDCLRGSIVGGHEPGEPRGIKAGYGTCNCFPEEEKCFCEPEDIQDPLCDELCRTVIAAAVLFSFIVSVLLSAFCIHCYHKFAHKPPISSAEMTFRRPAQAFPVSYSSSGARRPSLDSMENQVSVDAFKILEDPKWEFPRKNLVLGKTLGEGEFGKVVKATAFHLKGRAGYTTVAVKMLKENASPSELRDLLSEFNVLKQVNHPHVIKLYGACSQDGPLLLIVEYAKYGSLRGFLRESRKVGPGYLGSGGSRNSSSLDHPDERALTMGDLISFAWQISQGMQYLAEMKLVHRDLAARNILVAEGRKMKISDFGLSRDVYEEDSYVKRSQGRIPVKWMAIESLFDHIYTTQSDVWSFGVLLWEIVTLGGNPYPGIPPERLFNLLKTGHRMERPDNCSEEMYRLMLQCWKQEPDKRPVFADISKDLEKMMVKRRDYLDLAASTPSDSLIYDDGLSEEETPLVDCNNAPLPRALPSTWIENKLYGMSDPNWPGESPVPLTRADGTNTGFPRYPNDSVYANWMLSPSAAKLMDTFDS
UniProt P07949, whole entry M918T, looked up: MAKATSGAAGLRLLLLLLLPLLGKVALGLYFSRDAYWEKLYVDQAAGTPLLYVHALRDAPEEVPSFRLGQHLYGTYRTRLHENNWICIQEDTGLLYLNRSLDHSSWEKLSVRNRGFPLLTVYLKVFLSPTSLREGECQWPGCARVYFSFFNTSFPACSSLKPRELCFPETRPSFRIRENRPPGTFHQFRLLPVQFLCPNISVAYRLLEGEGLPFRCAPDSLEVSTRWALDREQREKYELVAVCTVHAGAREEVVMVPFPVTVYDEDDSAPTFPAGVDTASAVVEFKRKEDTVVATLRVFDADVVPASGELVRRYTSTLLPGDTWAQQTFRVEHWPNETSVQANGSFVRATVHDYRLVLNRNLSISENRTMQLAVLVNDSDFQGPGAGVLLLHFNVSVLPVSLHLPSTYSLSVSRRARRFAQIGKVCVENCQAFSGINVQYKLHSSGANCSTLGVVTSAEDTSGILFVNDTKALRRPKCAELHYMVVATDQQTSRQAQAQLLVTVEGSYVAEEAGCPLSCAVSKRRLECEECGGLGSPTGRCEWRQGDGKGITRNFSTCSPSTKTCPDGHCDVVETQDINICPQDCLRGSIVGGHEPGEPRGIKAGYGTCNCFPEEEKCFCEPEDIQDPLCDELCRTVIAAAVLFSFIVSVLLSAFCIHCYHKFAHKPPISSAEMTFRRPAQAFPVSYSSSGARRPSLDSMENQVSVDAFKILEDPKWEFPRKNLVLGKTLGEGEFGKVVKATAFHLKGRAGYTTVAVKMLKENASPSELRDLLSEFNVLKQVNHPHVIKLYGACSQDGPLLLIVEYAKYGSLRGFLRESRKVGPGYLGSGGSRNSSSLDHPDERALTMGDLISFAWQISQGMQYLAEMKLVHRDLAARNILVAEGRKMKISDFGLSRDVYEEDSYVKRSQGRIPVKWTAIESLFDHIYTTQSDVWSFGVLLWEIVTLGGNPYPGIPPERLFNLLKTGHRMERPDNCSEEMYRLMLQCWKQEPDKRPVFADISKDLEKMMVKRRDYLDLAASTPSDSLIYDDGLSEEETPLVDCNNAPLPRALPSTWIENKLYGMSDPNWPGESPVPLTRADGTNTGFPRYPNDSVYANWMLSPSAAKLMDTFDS
UniProt Q13546: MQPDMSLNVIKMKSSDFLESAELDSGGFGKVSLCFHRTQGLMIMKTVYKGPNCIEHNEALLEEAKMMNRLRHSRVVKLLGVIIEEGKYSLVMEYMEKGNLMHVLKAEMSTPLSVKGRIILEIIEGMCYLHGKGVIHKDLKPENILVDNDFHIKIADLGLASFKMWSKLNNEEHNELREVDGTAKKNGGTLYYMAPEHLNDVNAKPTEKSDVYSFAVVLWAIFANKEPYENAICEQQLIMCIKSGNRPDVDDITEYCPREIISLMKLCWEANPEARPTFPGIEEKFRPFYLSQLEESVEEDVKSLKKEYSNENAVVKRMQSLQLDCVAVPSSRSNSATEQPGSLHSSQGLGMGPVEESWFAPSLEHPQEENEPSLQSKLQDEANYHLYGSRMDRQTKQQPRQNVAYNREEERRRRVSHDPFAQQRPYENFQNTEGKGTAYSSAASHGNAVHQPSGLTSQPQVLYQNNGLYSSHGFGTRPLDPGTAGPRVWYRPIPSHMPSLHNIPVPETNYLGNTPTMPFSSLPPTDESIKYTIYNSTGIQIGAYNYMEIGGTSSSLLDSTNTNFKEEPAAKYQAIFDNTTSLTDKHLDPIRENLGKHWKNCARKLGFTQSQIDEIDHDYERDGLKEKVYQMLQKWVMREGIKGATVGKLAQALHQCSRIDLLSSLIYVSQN
UniProt Q01974, whole entry: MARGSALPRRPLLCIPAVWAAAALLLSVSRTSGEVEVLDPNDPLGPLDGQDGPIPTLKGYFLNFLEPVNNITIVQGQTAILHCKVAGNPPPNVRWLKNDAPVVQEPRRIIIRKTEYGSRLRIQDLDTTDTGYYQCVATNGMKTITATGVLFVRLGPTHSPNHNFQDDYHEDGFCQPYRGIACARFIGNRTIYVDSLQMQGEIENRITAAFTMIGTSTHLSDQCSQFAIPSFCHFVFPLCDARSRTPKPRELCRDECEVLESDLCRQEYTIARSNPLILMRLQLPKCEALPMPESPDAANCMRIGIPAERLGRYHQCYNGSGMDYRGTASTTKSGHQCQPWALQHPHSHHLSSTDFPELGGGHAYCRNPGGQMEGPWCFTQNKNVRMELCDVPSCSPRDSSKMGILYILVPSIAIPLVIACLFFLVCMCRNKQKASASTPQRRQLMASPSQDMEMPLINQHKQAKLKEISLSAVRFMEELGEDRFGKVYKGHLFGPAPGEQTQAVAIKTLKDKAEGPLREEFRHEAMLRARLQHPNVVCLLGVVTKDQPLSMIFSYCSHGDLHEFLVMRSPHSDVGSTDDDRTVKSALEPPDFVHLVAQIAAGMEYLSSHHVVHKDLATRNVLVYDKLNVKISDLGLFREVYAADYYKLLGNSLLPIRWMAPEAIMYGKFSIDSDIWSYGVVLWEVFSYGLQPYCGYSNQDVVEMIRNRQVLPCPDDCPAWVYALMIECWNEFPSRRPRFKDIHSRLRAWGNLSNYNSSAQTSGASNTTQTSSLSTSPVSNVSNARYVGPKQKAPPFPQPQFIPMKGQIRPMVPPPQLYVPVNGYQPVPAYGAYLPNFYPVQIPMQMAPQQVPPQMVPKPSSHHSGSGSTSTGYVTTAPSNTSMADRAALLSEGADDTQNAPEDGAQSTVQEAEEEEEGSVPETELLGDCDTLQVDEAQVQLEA
UniProt Q9NYA1, whole entry: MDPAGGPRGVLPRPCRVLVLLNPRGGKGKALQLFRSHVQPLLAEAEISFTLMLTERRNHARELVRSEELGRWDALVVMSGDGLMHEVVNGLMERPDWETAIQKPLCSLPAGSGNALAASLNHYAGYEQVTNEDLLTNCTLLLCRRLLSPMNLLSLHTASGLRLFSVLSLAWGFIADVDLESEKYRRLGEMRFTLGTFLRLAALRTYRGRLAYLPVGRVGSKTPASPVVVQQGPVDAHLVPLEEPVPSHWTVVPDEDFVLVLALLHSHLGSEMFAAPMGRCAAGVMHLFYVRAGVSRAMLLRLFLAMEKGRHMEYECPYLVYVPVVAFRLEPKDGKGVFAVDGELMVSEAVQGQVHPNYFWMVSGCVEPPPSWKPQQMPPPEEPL
UniProt Q9Y6E0: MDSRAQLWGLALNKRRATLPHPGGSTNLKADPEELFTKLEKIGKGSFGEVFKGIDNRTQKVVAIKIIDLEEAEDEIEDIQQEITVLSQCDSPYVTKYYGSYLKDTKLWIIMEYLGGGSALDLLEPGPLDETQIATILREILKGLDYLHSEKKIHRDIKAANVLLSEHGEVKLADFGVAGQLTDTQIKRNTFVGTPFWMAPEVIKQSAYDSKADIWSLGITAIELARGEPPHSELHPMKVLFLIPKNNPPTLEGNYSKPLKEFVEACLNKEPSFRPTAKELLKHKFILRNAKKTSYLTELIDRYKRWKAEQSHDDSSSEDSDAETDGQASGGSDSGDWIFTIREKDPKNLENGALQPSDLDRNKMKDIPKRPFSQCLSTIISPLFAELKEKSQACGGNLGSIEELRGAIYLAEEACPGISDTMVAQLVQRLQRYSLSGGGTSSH

Key:
Assay in all cases: kinase-Nluc reporter destabilization hit call (1 = scored as downregulated) (binary); higher = compound decreases kinase abundance
Conditions in all cases: K562; 2-18 h
[1] = molecular target: PDPK1 (UniProt O15530)
[2] = molecular target: PIK4CA (UniProt P42356)
[3] = molecular target: PIK4CB (UniProt Q9UBF8)
[4] = molecular target: PLK1 (UniProt P53350)
[5] = molecular target: PRKAA1 (UniProt Q13131)
[6] = molecular target: PRKCA (UniProt P17252)
[7] = molecular target: PTK2 (UniProt Q05397)
[8] = molecular target: PTK2B (UniProt Q14289)
[9] = molecular target: RAF1 (UniProt P04049)
[10] = molecular target: RAF1_S257L (clone: RAF1_mut) (UniProt P04049)
[11] = molecular target: RET (UniProt P07949)
[12] = molecular target: RET_M918T (clone: RET_mut) (UniProt P07949)
[13] = molecular target: RIOK1 (UniProt Q9BRS2)
[14] = molecular target: RIPK1 (UniProt Q13546)
[15] = molecular target: RIPK2 (UniProt O43353)
[16] = molecular target: ROR2 (UniProt Q01974)
[17] = molecular target: RPS6KA1 (UniProt Q15418)
[18] = molecular target: SPHK1 (UniProt Q9NYA1)
[19] = molecular target: SRC (UniProt P12931)
[20] = molecular target: STK24 (UniProt Q9Y6E0)

Row | SMILES | kinase-Nluc reporter destabilization hit call [1] | kinase-Nluc reporter destabilization hit call [2] | kinase-Nluc reporter destabilization hit call [3] | kinase-Nluc reporter destabilization hit call [4] | kinase-Nluc reporter destabilization hit call [5] | kinase-Nluc reporter destabilization hit call [6] | kinase-Nluc reporter destabilization hit call [7] | kinase-Nluc reporter destabilization hit call [8] | kinase-Nluc reporter destabilization hit call [9] | kinase-Nluc reporter destabilization hit call [10] | kinase-Nluc reporter destabilization hit call [11] | kinase-Nluc reporter destabilization hit call [12] | kinase-Nluc reporter destabilization hit call [13] | kinase-Nluc reporter destabilization hit call [14] | kinase-Nluc reporter destabilization hit call [15] | kinase-Nluc reporter destabilization hit call [16] | kinase-Nluc reporter destabilization hit call [17] | kinase-Nluc reporter destabilization hit call [18] | kinase-Nluc reporter destabilization hit call [19] | kinase-Nluc reporter destabilization hit call [20]
1 | Cc1cc(F)c(C(=O)Nc2cccc(-c3nncn3C(C)C)n2)cc1-n1cnc(C2CC2)c1 [Selonsertib] (10 µM) | inactive: 0 | inactive: 0 | inactive: 0 | inactive: 0 | inactive: 0 | inactive: 0 | inactive: 0 | inactive: 0 | inactive: 0 | inactive: 0 | inactive: 0 | inactive: 0 | inactive: 0 | inactive: 0 | inactive: 0 | inactive: 0 | inactive: 0 | inactive: 0 | inactive: 0 | inactive: 0
2 | COc1ccc(Oc2cc(NCCC(F)(F)F)c3ncc(-c4ccc(C(=O)NC5CC5)c(C)c4)n3n2)c(F)c1F (2.5 µM) | inactive: 0 | inactive: 0 | inactive: 0 | inactive: 0 | inactive: 0 | inactive: 0 | inactive: 0 | inactive: 0 | inactive: 0 | inactive: 0 | inactive: 0 | inactive: 0 | inactive: 0 | inactive: 0 | inactive: 0 | inactive: 0 | inactive: 0 | inactive: 0 | inactive: 0 | inactive: 0
3 | COc1cc2c(Nc3ccc(Br)cc3F)ncnc2cc1OCCn1ccnn1 (10 µM) | inactive: 0 | inactive: 0 | inactive: 0 | inactive: 0 | inactive: 0 | inactive: 0 | inactive: 0 | inactive: 0 | inactive: 0 | inactive: 0 | inactive: 0 | inactive: 0 | inactive: 0 | inactive: 0 | inactive: 0 | inactive: 0 | inactive: 0 | inactive: 0 | inactive: 0 | inactive: 0
4 | Cc1ccc(NC(=O)Nc2nnc(Sc3ncnc4cc(OCCCN5CCOCC5)ccc34)s2)cc1 (10 µM) | inactive: 0 | inactive: 0 | inactive: 0 | inactive: 0 | inactive: 0 | inactive: 0 | inactive: 0 | inactive: 0 | inactive: 0 | inactive: 0 | – | – | inactive: 0 | inactive: 0 | inactive: 0 | inactive: 0 | inactive: 0 | inactive: 0 | inactive: 0 | inactive: 0
5 | CC(C)C(=O)Nc1ncc(-c2cc(C(F)F)nn2-c2c(Cl)cccc2Cl)s1 (10 µM) | inactive: 0 | inactive: 0 | inactive: 0 | inactive: 0 | inactive: 0 | inactive: 0 | active: 1 | inactive: 0 | inactive: 0 | inactive: 0 | inactive: 0 | inactive: 0 | inactive: 0 | inactive: 0 | inactive: 0 | inactive: 0 | inactive: 0 | active: 1 | inactive: 0 | inactive: 0
6 | O=C([O-])c1ccccc1O.[Na+] [Sodium Salicylate] (10 µM) | inactive: 0 | inactive: 0 | inactive: 0 | inactive: 0 | inactive: 0 | inactive: 0 | inactive: 0 | inactive: 0 | inactive: 0 | inactive: 0 | inactive: 0 | inactive: 0 | inactive: 0 | inactive: 0 | inactive: 0 | inactive: 0 | inactive: 0 | inactive: 0 | inactive: 0 | inactive: 0
7 | CCOc1cc2ncc(-c3cc(N)nc(F)c3)n2cc1S(=O)(=O)C(C)(C)C (10 µM) | inactive: 0 | inactive: 0 | inactive: 0 | inactive: 0 | inactive: 0 | inactive: 0 | inactive: 0 | inactive: 0 | inactive: 0 | inactive: 0 | inactive: 0 | inactive: 0 | inactive: 0 | inactive: 0 | – | inactive: 0 | inactive: 0 | inactive: 0 | inactive: 0 | inactive: 0
8 | CN(c1ncccc1CNc1nc(Nc2ccc3c(c2)CC(=O)N3)ncc1C(F)(F)F)S(C)(=O)=O (2.5 µM) | inactive: 0 | inactive: 0 | inactive: 0 | inactive: 0 | inactive: 0 | inactive: 0 | – | – | inactive: 0 | inactive: 0 | inactive: 0 | inactive: 0 | inactive: 0 | inactive: 0 | inactive: 0 | inactive: 0 | inactive: 0 | inactive: 0 | inactive: 0 | inactive: 0
9 | COc1cc(C(=O)NC2CCN(C)CC2)c(F)cc1Nc1ncc2c(n1)N(C1CCCC1)CC(F)(F)C(=O)N2C [TAK-960 (dihydrochloride)] (2.5 µM) | inactive: 0 | inactive: 0 | inactive: 0 | – | inactive: 0 | inactive: 0 | inactive: 0 | inactive: 0 | inactive: 0 | inactive: 0 | inactive: 0 | inactive: 0 | inactive: 0 | inactive: 0 | inactive: 0 | inactive: 0 | inactive: 0 | inactive: 0 | inactive: 0 | inactive: 0
10 | COCCOc1cc2nccc(Nc3n[nH]c(C)c3C)c2cc1S(=O)(=O)C(C)(C)C [RIP2 kinase inhibitor 2] (2.5 µM) | inactive: 0 | inactive: 0 | inactive: 0 | inactive: 0 | inactive: 0 | inactive: 0 | inactive: 0 | inactive: 0 | inactive: 0 | inactive: 0 | inactive: 0 | inactive: 0 | inactive: 0 | inactive: 0 | – | inactive: 0 | inactive: 0 | inactive: 0 | inactive: 0 | inactive: 0
11 | Cn1c(=O)n(-c2ccc(C(C)(C)C#N)cc2)c2c3cc(-c4cnc5ccccc5c4)ccc3ncc21 [Dactolisib (Tosylate)] (10 µM) | inactive: 0 | active: 1 | inactive: 0 | inactive: 0 | inactive: 0 | inactive: 0 | inactive: 0 | inactive: 0 | inactive: 0 | inactive: 0 | inactive: 0 | active: 1 | inactive: 0 | inactive: 0 | inactive: 0 | inactive: 0 | inactive: 0 | inactive: 0 | inactive: 0 | inactive: 0
12 | COc1cc(Nc2ncc3c(n2)-c2ccc(Cl)cc2C(c2c(F)cccc2OC)=NC3)ccc1C(=O)O [Alisertib] (2.5 µM) | inactive: 0 | inactive: 0 | inactive: 0 | inactive: 0 | inactive: 0 | inactive: 0 | inactive: 0 | inactive: 0 | inactive: 0 | inactive: 0 | – | – | inactive: 0 | inactive: 0 | inactive: 0 | inactive: 0 | inactive: 0 | inactive: 0 | inactive: 0 | inactive: 0
13 | COc1nccc(-c2c(-c3ccc(F)cc3)ncn2C2CCC(O)CC2)n1 (stereo not drawn) (10 µM) | inactive: 0 | inactive: 0 | inactive: 0 | inactive: 0 | inactive: 0 | inactive: 0 | inactive: 0 | – | inactive: 0 | inactive: 0 | – | – | inactive: 0 | inactive: 0 | inactive: 0 | inactive: 0 | inactive: 0 | inactive: 0 | inactive: 0 | inactive: 0
14 | COCCNCCc1cccc(Nc2ncc3c(n2)-c2ccccc2[C@H](c2ccccc2F)C3)c1 [Derazantinib] (2.5 µM) | inactive: 0 | inactive: 0 | inactive: 0 | inactive: 0 | inactive: 0 | inactive: 0 | inactive: 0 | inactive: 0 | inactive: 0 | inactive: 0 | inactive: 0 | inactive: 0 | inactive: 0 | inactive: 0 | inactive: 0 | inactive: 0 | inactive: 0 | inactive: 0 | inactive: 0 | inactive: 0
15 | CC(C)(C)c1cc(NC(=O)Nc2ccc(-c3cn4c(n3)sc3cc(OCCN5CCOCC5)ccc34)cc2)no1 [Quizartinib] (10 µM) | inactive: 0 | inactive: 0 | inactive: 0 | inactive: 0 | inactive: 0 | inactive: 0 | inactive: 0 | inactive: 0 | inactive: 0 | inactive: 0 | inactive: 0 | inactive: 0 | inactive: 0 | – | inactive: 0 | inactive: 0 | inactive: 0 | inactive: 0 | inactive: 0 | inactive: 0
16 | Cc1cc(CS(=O)(=O)c2ccccc2)cc(OCc2ccc(CN3CCC[C@@H]3CO)cc2)c1 [PF-543 (Citrate)] (10 µM) | inactive: 0 | inactive: 0 | inactive: 0 | inactive: 0 | inactive: 0 | inactive: 0 | inactive: 0 | inactive: 0 | inactive: 0 | inactive: 0 | inactive: 0 | inactive: 0 | inactive: 0 | inactive: 0 | inactive: 0 | inactive: 0 | inactive: 0 | – | inactive: 0 | inactive: 0
17 | CNC(=O)c1ccccc1Nc1nc(Nc2ccc(N3CCOCC3)cc2OC)ncc1Cl (2.5 µM) | inactive: 0 | inactive: 0 | inactive: 0 | inactive: 0 | inactive: 0 | inactive: 0 | inactive: 0 | inactive: 0 | inactive: 0 | inactive: 0 | – | – | inactive: 0 | inactive: 0 | inactive: 0 | inactive: 0 | inactive: 0 | inactive: 0 | inactive: 0 | inactive: 0
18 | O=c1oc2ccccc2c(O)c1Cc1c(O)c2ccccc2oc1=O [Dicoumarol] (10 µM) | inactive: 0 | inactive: 0 | inactive: 0 | inactive: 0 | inactive: 0 | inactive: 0 | inactive: 0 | inactive: 0 | inactive: 0 | inactive: 0 | inactive: 0 | inactive: 0 | inactive: 0 | inactive: 0 | inactive: 0 | inactive: 0 | inactive: 0 | inactive: 0 | inactive: 0 | inactive: 0
19 | COc1cc(C(=O)NC2CCN(C)CC2)ccc1Nc1ncc2c(n1)N(C1CCCC1)CC(F)(F)C(=O)N2C (10 µM) | inactive: 0 | inactive: 0 | inactive: 0 | – | inactive: 0 | inactive: 0 | inactive: 0 | inactive: 0 | inactive: 0 | inactive: 0 | inactive: 0 | inactive: 0 | inactive: 0 | inactive: 0 | inactive: 0 | inactive: 0 | inactive: 0 | inactive: 0 | inactive: 0 | inactive: 0

Given as a markdown table: part of the list above.

| Row | SMILES | kinase-Nluc reporter destabilization hit call [1] | kinase-Nluc reporter destabilization hit call [2] | kinase-Nluc reporter destabilization hit call [3] | kinase-Nluc reporter destabilization hit call [4] | kinase-Nluc reporter destabilization hit call [5] | kinase-Nluc reporter destabilization hit call [6] | kinase-Nluc reporter destabilization hit call [7] | kinase-Nluc reporter destabilization hit call [8] | kinase-Nluc reporter destabilization hit call [9] | kinase-Nluc reporter destabilization hit call [10] | kinase-Nluc reporter destabilization hit call [11] | kinase-Nluc reporter destabilization hit call [12] | kinase-Nluc reporter destabilization hit call [13] | kinase-Nluc reporter destabilization hit call [14] | kinase-Nluc reporter destabilization hit call [15] | kinase-Nluc reporter destabilization hit call [16] | kinase-Nluc reporter destabilization hit call [17] | kinase-Nluc reporter destabilization hit call [18] | kinase-Nluc reporter destabilization hit call [19] | kinase-Nluc reporter destabilization hit call [20] |
| --- | --- | --- | --- | --- | --- | --- | --- | --- | --- | --- | --- | --- | --- | --- | --- | --- | --- | --- | --- | --- | --- |
| 2 | COc1ccc(Oc2cc(NCCC(F)(F)F)c3ncc(-c4ccc(C(=O)NC5CC5)c(C)c4)n3n2)c(F)c1F (2.5 µM) | inactive: 0 | inactive: 0 | inactive: 0 | inactive: 0 | inactive: 0 | inactive: 0 | inactive: 0 | inactive: 0 | inactive: 0 | inactive: 0 | inactive: 0 | inactive: 0 | inactive: 0 | inactive: 0 | inactive: 0 | inactive: 0 | inactive: 0 | inactive: 0 | inactive: 0 | inactive: 0 |
| 3 | COc1cc2c(Nc3ccc(Br)cc3F)ncnc2cc1OCCn1ccnn1 (10 µM) | inactive: 0 | inactive: 0 | inactive: 0 | inactive: 0 | inactive: 0 | inactive: 0 | inactive: 0 | inactive: 0 | inactive: 0 | inactive: 0 | inactive: 0 | inactive: 0 | inactive: 0 | inactive: 0 | inactive: 0 | inactive: 0 | inactive: 0 | inactive: 0 | inactive: 0 | inactive: 0 |
| 4 | Cc1ccc(NC(=O)Nc2nnc(Sc3ncnc4cc(OCCCN5CCOCC5)ccc34)s2)cc1 (10 µM) | inactive: 0 | inactive: 0 | inactive: 0 | inactive: 0 | inactive: 0 | inactive: 0 | inactive: 0 | inactive: 0 | inactive: 0 | inactive: 0 | – | – | inactive: 0 | inactive: 0 | inactive: 0 | inactive: 0 | inactive: 0 | inactive: 0 | inactive: 0 | inactive: 0 |
| 5 | CC(C)C(=O)Nc1ncc(-c2cc(C(F)F)nn2-c2c(Cl)cccc2Cl)s1 (10 µM) | inactive: 0 | inactive: 0 | inactive: 0 | inactive: 0 | inactive: 0 | inactive: 0 | active: 1 | inactive: 0 | inactive: 0 | inactive: 0 | inactive: 0 | inactive: 0 | inactive: 0 | inactive: 0 | inactive: 0 | inactive: 0 | inactive: 0 | active: 1 | inactive: 0 | inactive: 0 |
